Measured values: US20210077477A1, “MICROGLIA MODULATORS FOR USE IN TREATMENT OF DEPRESSION” (priority 2018, published 2021)
At least one compound was matched to its structure with a doubt left.

Tests used:
[1] = test system: microglia-neurogenic cells interaction; assay: Microglial contacts with DCX-positive cells in the DG; type: in vivo; conditions: CUS-exposed, MINO-treated mice
hippocampal neurogenesis = assay: Hippocampal neurogenesis (DCX-positive cells in the DG); type: in vivo, mice; conditions: CUS-exposed
Procedure: Microglia were visualized using a primary antibody to the microglial marker ionized calcium-binding adapter molecule-1 (Iba-1) (rabbit anti Iba-1 1:250, Wako, Japan), followed by a secondary antibody (goat anti rabbit, 1:200; Invitrogen, Carlsbad, Calif., USA). The rate of neurogenesis in the hippocampus was measured by staining for doublecortin (DCX), using guinea pig anti-DCX (1:1,000, Millipore, Chemicon, Tamecula, Calif., USA) as the primary antibody, and biotin-SP-conjugated donkey anti-Guinea pig (1:200; Jackson Laboratories, West grove, PA, USA) as the secondary antibody, with final visualization using a conjugated streptavidin Ab (Jackson Laboratories, West grove, PA, USA). […]
Images were captured using a Nikon Eclipse microscope and camera. Cells were manually counted using 10× magnification in a defined area exclusively containing the dentate gyrus (DG) or CA3 region of the dorsal hippocampus for each slide, using Nikon Imaging Elements Software (NIS-Elements). Four sections of each brain were counted. […] Microglia cell processes length was measured by capturing images at 40× magnification and by manual tracing of the processes of all Iba-1+ cells in these sections, using the Image)/FIJI software. […] Contacts were recorded if spatial overlap was observed on the body or on the dendrite branches of P2YR12-positive cells. […]

CUS-exposed mice [2] = assay: Porsolt forced swim test in the CUS model; type: in vivo; conditions: minocycline in drinking water, ECT 2.5 weeks
Procedure: (§1) The CUS schedule comprised daily exposure to two stressors in a random order over a 5-week period. The list of CUS stressors included: cage shaking for 1 h with loud music and lights on, lights on during the entire night (12 h), lights-off for 3 h during the daylight phase, flashing (stroboscopic) light for 6 h, placement in 4° C. cold room for 1 h, mild restraint (in small ventilated cages) for 2 h, 45° cage tilt for 14 h, wet sawdust in the cage for 14 h, exposure to rat odor for 2 h, noise in the room for 3 h, and water deprivation for 12 h during the dark period.
Mice were placed in a plastic cylinder (with a height of 30 cm and diameter of 20 cm), filled with 25° C. water. The time spent immobile, defined as the absence of all movement except for motions required to maintain head above water were recorded for 6 min, and automatically analyzed off-line using the EthoVision software (Noldus).

CUS-exposed mice [3] = assay: Sucrose preference test (anhedonia) in the CUS model; type: in vivo; conditions: minocycline 40 mg/kg/day in drinking water, ECT 2.5 weeks
Procedure: as §1
Following baseline adaptation to sucrose for 3-4 days, mice were presented in the beginning of the dark circadian phase with two graduated drinking tubes, one containing tap water and the other 1% sucrose solution for 4 h. Sucrose preference was calculated as the percentage of sucrose consumption out of the total drinking volume.

## CN(C)c1ccc(O)c2c1C[C@H]1C[C@H]3[C@H](N(C)C)C(O)=C(C(N)=O)C(=O)[C@@]3(O)C(O)=C1C2=O [minocycline]
[1]
  ECT-induced increase in number of microglial contacts with neurogenic cells: No such increase
Hippocampal neurogenesis
  levels of neurogenesis when ECT applied together with MINO, vs non-stressed controls: remained decreased
CUS-exposed mice [2]
  anti-depressive effect of ECT in the forced swim test under MINO: not influenced
CUS-exposed mice [3]
  sucrose preference following ECT in minocycline-treated mice: no therapeutic effect of ECT
